Measurements: article doi:10.1101/2021.07.06.451253
Results are given in words; binding and its absence hold for the method and conditions named. Binding seen in cells or lysates may run through a third protein. Binding calls can cover weak binding; strength is not graded here. Sequences can lack the tags named with a protein.

Target: T1, N’-FLAG-tagged Tanmp (tanycyte-associated ER membrane protein) (mouse) (UniProt Q6NSQ3)
T1 sequence: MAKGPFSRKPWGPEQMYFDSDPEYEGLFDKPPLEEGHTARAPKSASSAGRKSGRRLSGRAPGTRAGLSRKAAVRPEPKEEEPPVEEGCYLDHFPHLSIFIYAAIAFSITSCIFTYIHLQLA
Assay: co-IP

Row | Substance | binding
1 | α-subunit of mitochondrial ATPase (ATPA) | binds
2 | β-subunit of mitochondrial ATPase (ATPB) | binds
